Paper PMC9794804
These are yes or no findings as the source states them, for the method shown. Some results given as binding are weak or reduced against the parent protein; the word gives no strength.

The chains behind the UniProt entries cited, without tags or fusion partners.
UniProt P42227: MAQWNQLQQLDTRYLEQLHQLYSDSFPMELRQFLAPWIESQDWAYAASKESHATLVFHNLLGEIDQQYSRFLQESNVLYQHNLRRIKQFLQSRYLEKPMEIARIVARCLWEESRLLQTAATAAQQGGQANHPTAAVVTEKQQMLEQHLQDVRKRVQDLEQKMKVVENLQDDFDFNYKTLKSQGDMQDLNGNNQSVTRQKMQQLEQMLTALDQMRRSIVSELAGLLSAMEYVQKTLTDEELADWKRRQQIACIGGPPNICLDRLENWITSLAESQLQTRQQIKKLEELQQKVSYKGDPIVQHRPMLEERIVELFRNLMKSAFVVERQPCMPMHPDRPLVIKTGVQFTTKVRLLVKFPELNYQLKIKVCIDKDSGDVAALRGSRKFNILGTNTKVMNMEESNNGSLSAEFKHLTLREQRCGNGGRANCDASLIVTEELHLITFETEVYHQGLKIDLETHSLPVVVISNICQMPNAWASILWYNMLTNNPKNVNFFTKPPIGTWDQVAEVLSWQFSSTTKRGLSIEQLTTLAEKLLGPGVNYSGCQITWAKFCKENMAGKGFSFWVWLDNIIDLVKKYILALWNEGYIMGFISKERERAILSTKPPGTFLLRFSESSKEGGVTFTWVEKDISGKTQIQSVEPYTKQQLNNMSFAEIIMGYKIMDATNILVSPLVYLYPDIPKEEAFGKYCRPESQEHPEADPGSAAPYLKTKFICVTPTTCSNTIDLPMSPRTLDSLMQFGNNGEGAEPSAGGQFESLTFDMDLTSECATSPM

Target: STAT3 (mouse (endogenous in RAW 264.7)) (UniProt P42227)
Test: immunodepletion (flow-through after IP); anti-STAT3 antibody IP from lysates of RAW 264.7 cells treated with PBS or with rmCIRP (1 µg/ml, 24 h), with or without stattic (3 µM); protein A/G magnetic beads; free βPIX left in the flow-through detected by Western blot

B1: βPIX (protein, UniProt Q9ES28 1-862)
chain: MNSAEQTVTWLITLGVLESPKKTISDPEVFLQASLKDGVVLCRLLERLLPGTIEKVYPEPRNESECLSNIREFLRACGASLRLETFDANDLYQGQNFNKVLSSLVTLNKVTADIGLGSDSVCARPSSHRIKSFDSLGSQSSHSRTSKLLQSQYRSLDMTDNTNSQLVVRAKFNFQQTNEDELSFSKGDVIHVTRVEEGGWWEGTHNGRTGWFPSNYVREIKPSEKPVSPKSGTLKSPPKGFDTTAINKSYYNVVLQNILETEHEYSKELQSVLSTYLRPLQTSDKLSSANTSYLMGNLEEISSFQQVLVQSLEECTKSPEAQQRVGGCFLSLMPQMRTLYLAYCANHPSAVSVLTEHSEDLGEFMETKGASSPGILVLTTGLSKPFMRLDKYPTLLKELERHMEDYHPDRQDIQKSMTAFKNLSAQCQEVRKRKELELQILTEPIRSWEGDDIKTLGSVTYMSQVTIQCAGSEEKNERYLLLFPNLLLMLSASPRMSGFIYQGKLPTTGMTITKLEDSENHRNAFEISGSMIERILVSCTSQQDLHEWVEHLQKQTKVTSVSNPTIKPHSVPSHTLPSHPLTPSSKHADSKPVALTPAYHTLPHPSHHGTPHTTISWGPLEPPKTPKPWSLSCLRPAPPLRPSAALCYKEDLSKSPKTMKKLLPKRKPERKPSDEEFAVRKSTAALEEDAQILKVIEAYCTSAKTRQTLNSTWQGTDLMHNHVLADDDQSSLDSLGRRSSLSRLEPSDLSEDSEYDSIWTAHSYRMGSASRSRKESAPQVLLPEEEKIIVEETKSNGQTVIEEKSLVDTVYALKDEVQELRQDNKKMKKSLEEEQRARKDLEKLVRKVLKNMNDPAWDETNL
B1 was tested, and the binding was “binds”.
